PubChem BioAssay AID743121, NCATS, 2013
In all, the deposit lists about 26,000 reagents; shown is an unselected part. 167 of all reagents (0.63%) count as active. 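Calls are per gene from RSA p-values that are not deposited; an individual active-marked siRNA can sensitise only weakly.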 A number with no mark means an inactive call. Reagents against one gene are numbered here.

Aim: 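Knock-downs that sensitise breast cancer cells to camptothecin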 (primary screen)
Cell system: MDA-MB-231 cells, a human breast cancer line
Reagents: single siRNA against human genes, 20 nM siRNA (0.8 pmol per well)
Time to read-out: 120 h (drug added 48 h after transfection, read 72 h later)
Conditions: camptothecin 20 nM (about EC30) for 72 h; vehicle 0.1% DMSO in parallel plates
Measured: 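Cell viability by ATP luminescence (CellTiter-Glo) as % of non-targeting siRNA wells, and the log2 ratio of viability without drug over viability with camptothecin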
Direction: log2 vehicle/camptothecin viability: higher = stronger sensitisation to camptothecin; viability with camptothecin and viability without drug: higher = more viable cells
Rule for the call: 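Active genes have an RSA gene-level p-value below 0.001, computed from the ratios of their separate siRNAs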

target gene | reagent no. | log2 vehicle/camptothecin viability | viability with camptothecin (% of control) | viability without drug (% of control)
PIK3R1 (phosphoinositide-3-kinase regulatory subunit 1) | 1 | -0.49 | 52.2 | 37.2
PIK3R1 (phosphoinositide-3-kinase regulatory subunit 1) | 2 | -0.0922 | 105 | 98.5
PIK3R1 (phosphoinositide-3-kinase regulatory subunit 1) | 3 | -0.382 | 73.5 | 56.4
PIK3R1 (phosphoinositide-3-kinase regulatory subunit 1) | 4 | 2.27 | 7.16 | 34.4
HES4 (hes family bHLH transcription factor 4) | 1 | 0.072 | 91.9 | 96.6
HES4 (hes family bHLH transcription factor 4) | 2 | 0.338 | 9.3 | 11.8
HES4 (hes family bHLH transcription factor 4) | 3 | -0.0511 | 61.5 | 59.3
HES4 (hes family bHLH transcription factor 4) | 4 | 0.487 | 21.3 | 29.9
RNF19B (ring finger protein 19B) | 1 | -0.115 | 84.5 | 78
RNF19B (ring finger protein 19B) | 2 | 0.335 | 67.6 | 85.3
RNF19B (ring finger protein 19B) | 3 | -0.134 | 81.1 | 73.9
RNF19B (ring finger protein 19B) | 4 | -0.414 | 73.6 | 55.2
IL36G (interleukin 36 gamma) | 1 | -0.356 | 105 | 81.9
IL36G (interleukin 36 gamma) | 2 | 0.66 | 45.3 | 71.6
IL36G (interleukin 36 gamma) | 3 | -0.23 | 75.1 | 64
IL36G (interleukin 36 gamma) | 4 | -0.154 | 80.1 | 72
KCNA7 (potassium voltage-gated channel subfamily A member 7) | 1 | -0.091 | 35.5 | 33.3
KCNA7 (potassium voltage-gated channel subfamily A member 7) | 2 | 0.0829 | 63.9 | 67.7
KCNA7 (potassium voltage-gated channel subfamily A member 7) | 3 | -0.324 | 58.6 | 46.8
KCNA7 (potassium voltage-gated channel subfamily A member 7) | 4 | -0.63 | 104 | 67.4
CAMK1 (calcium/calmodulin dependent protein kinase I) | 1 | -0.579 | 77.7 | 52
CAMK1 (calcium/calmodulin dependent protein kinase I) | 2 | 0.224 | 58.3 | 68.1
CAMK1 (calcium/calmodulin dependent protein kinase I) | 3 | 0.0329 | 95.8 | 98.1
CAMK1 (calcium/calmodulin dependent protein kinase I) | 4 | 0.0143 | 77.5 | 78.2
SORT1 (sortilin 1) | 1 | 0.193 | 55 | 62.8
SORT1 (sortilin 1) | 2 | -0.124 | 93 | 85.3
SORT1 (sortilin 1) | 3 | 0.0386 | 102 | 105
SORT1 (sortilin 1) | 4 | 0.492 | 29.6 | 41.7

Individual results from above:
Under “viability with camptothecin (% of control)”, SORT1 (sortilin 1) #4 has 29.6
Result of PIK3R1 (phosphoinositide-3-kinase regulatory subunit 1) #3 under “viability without drug (% of control)”: 56.4
Under “log2 vehicle/camptothecin viability”, KCNA7 (potassium voltage-gated channel subfamily A member 7) #1 is entered as -0.091

The results go on.
target gene | reagent no. | log2 vehicle/camptothecin viability | viability with camptothecin (% of control) | viability without drug (% of control)
CES1 (carboxylesterase 1) | 1 | -0.0999 | 80.3 | 75
CES1 (carboxylesterase 1) | 2 | -0.086 | 98.5 | 92.8
CES1 (carboxylesterase 1) | 3 | 0.341 | 44.5 | 56.4
CES1 (carboxylesterase 1) | 4 | 1.13 | 37.3 | 81.4
CES1 (carboxylesterase 1) | 5 | -0.412 | 64 | 48.1
CES1 (carboxylesterase 1) | 6 | -0.00527 | 37.6 | 37.5
CES1 (carboxylesterase 1) | 7 | 0.0655 | 82.8 | 86.7
AHCY (adenosylhomocysteinase) | 1 | 0.11 | 53.1 | 57.4
AHCY (adenosylhomocysteinase) | 2 | -0.0929 | 54 | 50.6
AHCY (adenosylhomocysteinase) | 3 | 0.117 | 88.7 | 96.2
AHCY (adenosylhomocysteinase) | 4 | 0.593 | 41.3 | 62.3
PCDH20 (protocadherin 20) | 1 | -0.324 | 84.2 | 67.3
PCDH20 (protocadherin 20) | 2 | -0.33 | 72.2 | 57.4
PCDH20 (protocadherin 20) | 3 | 0.478 | 70.4 | 98
PCDH20 (protocadherin 20) | 4 | -0.168 | 119 | 106
LTC4S (leukotriene C4 synthase) | 1 | -0.263 | 46.2 | 38.5
LTC4S (leukotriene C4 synthase) | 2 | 0.0102 | 90.6 | 91.3
LTC4S (leukotriene C4 synthase) | 3 | -0.503 | 71.8 | 50.7
LTC4S (leukotriene C4 synthase) | 4 | -0.43 | 98.3 | 73
